Source: PubChem BioAssay (Tox21)
Several values for one entry are separate records, joined by “and”; a condition that tells them apart may be missing. Identical values can stand only once. This list was built around the results that the source calls inconclusive (neither active nor inactive); the mix of calls is not that of the screen. For some of these results: Potencies beside an inconclusive call are fits to weak or partial responses and may not hold up. Some structures have more than one record in an assay (separate samples or runs), and their calls can disagree. Activity calls are given as the source filed them. Unless noted, the call rests on the fitted dose curve.

Chains of the proteins cited; added tags and fusions are not shown. Lines headed by an entry give the natural chain unless they say otherwise; changes in a name come on top.
UniProt P14416, whole entry, looked up: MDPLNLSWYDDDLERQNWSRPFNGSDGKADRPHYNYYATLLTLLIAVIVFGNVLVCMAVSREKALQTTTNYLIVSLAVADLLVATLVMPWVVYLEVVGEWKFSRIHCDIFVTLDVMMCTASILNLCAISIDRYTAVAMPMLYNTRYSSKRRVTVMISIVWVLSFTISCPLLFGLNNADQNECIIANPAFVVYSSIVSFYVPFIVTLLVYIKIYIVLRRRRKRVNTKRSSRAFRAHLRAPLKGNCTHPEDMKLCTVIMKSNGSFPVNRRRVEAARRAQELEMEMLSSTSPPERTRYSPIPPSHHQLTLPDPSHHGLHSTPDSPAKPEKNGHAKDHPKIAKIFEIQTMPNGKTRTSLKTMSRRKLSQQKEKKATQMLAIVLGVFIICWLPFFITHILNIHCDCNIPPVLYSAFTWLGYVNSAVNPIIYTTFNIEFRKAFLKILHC
UniProt P11229: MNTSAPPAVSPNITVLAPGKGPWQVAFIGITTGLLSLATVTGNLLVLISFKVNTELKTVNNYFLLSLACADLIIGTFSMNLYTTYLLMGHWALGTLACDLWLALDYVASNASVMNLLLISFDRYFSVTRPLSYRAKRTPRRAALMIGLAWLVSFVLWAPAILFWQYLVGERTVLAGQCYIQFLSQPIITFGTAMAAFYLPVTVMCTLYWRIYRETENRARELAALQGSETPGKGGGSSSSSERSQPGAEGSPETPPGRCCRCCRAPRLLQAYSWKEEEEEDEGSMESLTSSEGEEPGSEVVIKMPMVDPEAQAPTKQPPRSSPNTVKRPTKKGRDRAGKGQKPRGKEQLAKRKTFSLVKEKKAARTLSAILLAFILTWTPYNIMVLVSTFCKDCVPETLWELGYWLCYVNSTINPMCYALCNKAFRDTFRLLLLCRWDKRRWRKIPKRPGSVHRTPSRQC
UniProt P28223, whole entry, looked up: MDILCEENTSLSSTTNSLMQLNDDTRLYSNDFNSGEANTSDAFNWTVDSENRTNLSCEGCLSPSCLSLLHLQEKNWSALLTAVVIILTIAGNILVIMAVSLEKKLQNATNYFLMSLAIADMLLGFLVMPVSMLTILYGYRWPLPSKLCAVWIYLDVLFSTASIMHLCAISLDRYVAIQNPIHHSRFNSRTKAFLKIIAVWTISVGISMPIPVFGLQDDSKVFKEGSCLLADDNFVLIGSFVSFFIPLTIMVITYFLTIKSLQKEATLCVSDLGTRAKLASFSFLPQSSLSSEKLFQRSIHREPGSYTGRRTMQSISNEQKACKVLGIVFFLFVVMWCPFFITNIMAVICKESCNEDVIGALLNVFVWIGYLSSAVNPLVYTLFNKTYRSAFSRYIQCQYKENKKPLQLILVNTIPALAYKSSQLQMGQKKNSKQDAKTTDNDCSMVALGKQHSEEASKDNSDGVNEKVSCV

Experiments:
[1] = p53 small molecule agonists, cell-based qHTS assay: qHTS cell viability counter screen (AID 1963581); further: nearly all actives have a fitted effect of over 45% in size; further: potency means the concentration at half of the fitted maximal effect
Procedure, shortened: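 ATP content measured by luminescence in HCT-116 p53RE-bla cells treated 16 h at 37 C, same wells as the reporter screen.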

[2] = target: Beta-2 adrenergic receptor (Homo sapiens) (UniProt P07550); assay: Adrenergic beta2 receptor (ADRB2) small molecule agonists, cell-based qHTS assay (AID 1963593); details: CHO-ADRB2 cells, cAMP HTRF, 30 min; further: potency means the concentration at half of the fitted maximal effect;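 on activation: CHO cells stably overexpressing human ADRB2; on the % scale 0 is the no-effect control and ±100 the full control effect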
Procedure, shortened: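 CHO cells stably over-expressing ADRB2 were plated overnight at 37C, then dosed with compounds plus a stimulation mix containing 100uM IBMX and 25uM Ro-20-1724 for 0.5hr at room temperature. cAMP was measured by HTRF competition, 1hr.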

[3] = target: D(2) dopamine receptor (Homo sapiens) (UniProt P14416); assay: Dopamine D2 receptor (DRD2) small molecule agonists, cell-based qHTS assay (AID 1963594); details: HEK293-DRD2 cAMP HTRF, agonist mode, 30 min; activation: at 92.4 µM (top of the series) unless noted; further: nearly all actives have a fitted effect of over 35% in size; further: potency means the concentration at half of the fitted maximal effect; on activation: on the % scale 0 is the no-effect control and ±100 the full control effect
Procedure, shortened: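 HEK293 cells stably expressing DRD2 were cultured 24 h at 37 C, then given Ro20-1724 (0.1 mM final) and compounds for 10 min at room temperature. NKH477 (200nM) was then added for 30 min. cAMP was read by HTRF.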

[4] = target: Muscarinic acetylcholine receptor M1 (Homo sapiens) (UniProt P11229); assay: Cholinergic receptor muscarinic 1 (CHRM1) small molecule agonists, cell-based qHTS assay (AID 1963589); further: on the % scale 0 is the no-effect control and ±100 the full control effect; nearly all actives have a fitted effect of over 35% in size
Procedure, shortened: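 Homogeneous fluorescence calcium flux, agonist mode. Human M1-expressing CHO cells; compound dosed at 15 concentrations, three independent runs; signal sampled every 1 sec.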

[5] = target: Beta-2 adrenergic receptor (Homo sapiens) (UniProt P07550); assay: Adrenergic beta2 receptor (ADRB2) small molecule antagonists, cell-based qHTS assay (AID 1963592); details: CHO-ADRB2 cells, isoproterenol-stimulated cAMP HTRF ratio, 0.5 h; activity change, negative = inhibition: at 92.4 µM (top of the series) unless noted; further: nearly all actives have a fitted effect of over 50% in size; further: potency means the concentration at half of the fitted maximal effect
Procedure, shortened: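 Assay format: CHO-ADRB2 cells, 18-20hr seeding at 37C/5% CO2, then compound plus 1nM isoproterenol agonist mix for 0.5hr RT. Homogeneous time-resolved fluorescence cAMP detection after 1hr, expressed as 665/615 nm ratio.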

[6] = p53 small molecule agonists, cell-based qHTS assay (AID 1963582; active means well fitted activation curve with a large enough effect in the signal ratio in the repeat runs, not every such curve was filed as active; inconclusive means weak or mixed curves; the % refers to the signal ratio; further: potency means the concentration at half of the fitted maximal effect; on activation: on the % scale 0 is the no-effect control and ±100 the full control effect); details: HCT-116 p53RE-bla reporter, beta-lactamase FRET ratio, 16 h; activation: at 66 µM (top of the series) unless noted
Procedure, shortened: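 16 h compound exposure (37 C) of p53 response element–bla cells, preceded by 5 h recovery at 37 C/5% CO2; read-out via LiveBLAzer B/G FRET substrate, 2 h RT, fluorescence intensity.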

[7] = target: 5-hydroxytryptamine receptor 2A (Homo sapiens) (UniProt P28223); assay: 5-hydroxytryptamine receptor 2A (HTR2A) small molecule antagonists, cell-based qHTS assay (AID 1963586); further: nearly all actives have a fitted effect of over 45% in size; further: potency means the concentration at half of the fitted maximal effect
Procedure, shortened: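 CHO cells stably expressing human HTR2A were plated for 18 h at 37 C, then loaded with calcium dye for 1 h. Compounds were preincubated 5 min at room temperature before DOI (4 nM solution) was added. Kinetic fluorescence was read for 3 min.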

[8] = cAMP Responsive Elements (CRE) small molecule agonists, cell-based qHTS assay (AID 1963590); details: CRE-bla HEK293T, beta-lactamase FRET ratio, 3 h; activation: at 92.4 µM (top of the series) unless noted; further: potency means the concentration at half of the fitted maximal effect
Procedure, shortened: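 HEK 293T cells stably bearing CRE-bla were plated at 2,000 cells per well and rested 18 h. Compounds, positive controls or DMSO were added for 3 h at 37 C. LiveBLAzer B/G substrate was then loaded for 2 h at room temperature.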

[9] = cAMP Responsive Elements (CRE) small molecule antagonists, cell-based qHTS assay (AID 1963591; active means well fitted inhibition curve with a large enough effect in the signal ratio in the repeat runs, not every such curve was filed as active; inconclusive means weak or mixed curves, or effect the other way; the % refers to the signal ratio; further: on the % scale 0 is the no-effect control and ±100 the full control effect); details: CRE-bla HEK293T, beta-lactamase FRET ratio; activity change, negative = inhibition: at 92.4 µM (top of the series) unless noted
Procedure, shortened: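 First, CRE-bla HEK293T cells settled 18 h at 37 C. Next, compound and 0.25 uM final NKH477 were applied for 3 h. Last, LiveBLAzer B/G substrate was loaded for 2 h at room temperature.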

[10] = target: Muscarinic acetylcholine receptor M1 (Homo sapiens) (UniProt P11229); assay: Cholinergic receptor muscarinic 1 (CHRM1) small molecule antagonists, cell-based qHTS assay (AID 1963588); further: potency means the concentration at half of the fitted maximal effect; nearly all actives have a fitted effect of over 40% in size
Procedure, shortened: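 Compounds were tested at 15 concentrations in three independent runs. Dye-loaded CHRM1-CHO cells were exposed 5 min at room temperature before stimulation by acetylcholine added at 50nM. Intracellular calcium was read kinetically on FDSS for 3 min.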

[11] = target: D(2) dopamine receptor (Homo sapiens) (UniProt P14416); assay: Dopamine D2 receptor (DRD2) small molecule antagonists, cell-based qHTS assay (AID 1963595; active means well fitted inhibition curve with a large enough effect in the signal ratio in the repeat runs, with a control signal flat; inconclusive means weak or mixed curves, or effect the other way; the % refers to the signal ratio; further: potency means the concentration at half of the fitted maximal effect); details: HEK293-DRD2 cAMP HTRF antagonist mode; activity change, negative = inhibition: at 92.4 µM (top of the series) unless noted
Procedure, shortened: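 Antagonist mode in DRD2-HEK293 cells: after compound addition with 0.1 mM Ro20-1724, cells received quinpirole (12 nM) and NKH477 (200 nM) for 30 min at room temperature; HTRF cAMP read after 1 h detection.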

[12] = activation: at 92.4 µM (top of the series) unless noted

With `CC(=O)CC(C)(C)C1CCCCC1` the Potency [1] was “inactive” and the Potency [2, 12] was “inactive”.

For `O=C(O)CCC(=O)C(=O)O`, the Potency [1] was inconclusive: 0.408 µM [cytotoxic, single point] and the activation [2, 12] was inconclusive: 2.89%.

For `CC1(C)CC(N)CC(C)(CN)C1` (stereo unspecified), the Potency [1] was inconclusive: 0.0026 µM [cytotoxic, full curve, poor fit], the Potency [2, 12] was inconclusive: 2.43 µM [inhibitor, single point] and the activation [2, 12] was inconclusive: 7.09%.

In the case of `CC(O)CN(CCN(CC(C)O)CC(C)O)CC(C)O` (stereo unspecified), the Potency [1] is reported as “inactive”, the activation ([2]; at 42.5 µM (top of the series)) is reported as inconclusive: -7.65% and the activation ([2]; at 92.4 µM (top of the series)) is reported as inconclusive: 0.44%.

With `CC(=O)Nc1c(I)c(NC(C)=O)c(I)c(C(=O)O)c1I` the Potency [1] was inconclusive: 0.063 µM [rising, full curve], the activation ([2]; at 42.5 µM (top of the series)) was inconclusive: -23.2% and the activation ([2]; at 92.4 µM (top of the series)) was inconclusive: 0.773% and inconclusive: 17.4%.

In the case of `CCCCCCCCCC`, the Potency [1] is reported as “inactive” and the Potency [2, 12] is reported as “inactive and inconclusive: 27.3 µM [inhibitor, single point]”.

In the case of `FC(F)OC(Cl)C(F)(F)F` (stereo unspecified), the Potency [1] is reported as “inactive”, the activation [2, 12] is reported as inconclusive: 30.3% and the Potency [3] is reported as “inactive”.

With `CC(C)(CCC(=O)O)C(=O)O` the Potency [1] was “inactive” and the Potency [2, 12] was inconclusive: 0.219 µM [inhibitor, partial curve, poor fit].

In the case of `FC(F)(F)C(F)(F)C(F)(F)C(F)(F)C(F)(F)C(F)(F)C(F)(F)C(F)(F)C(F)(F)C(F)(F)F`, the Potency [1] is reported as inconclusive: 0.0531 µM [cytotoxic, single point] and the activation [2, 12] is reported as inconclusive: -0.193% [at 8.39 µM].

In the case of `CCCCC(CC)COC(=O)COc1ccc(Cl)cc1C` (stereo unspecified), the Potency [1] is reported as inconclusive: 1.45 µM [rising, partial curve, poor fit] and the activation [2, 12] is reported as inconclusive: -30.6%.

With `O=C1OC(=O)C2C3C=CC(C3)C12` (stereo unspecified) the Potency [1] was inconclusive: 57.6 µM [cytotoxic, partial curve, poor fit], the Potency [2, 12] was “inactive” and the Potency [3] was inconclusive: 68.6 µM [rising, single point].

With `CCC(C)(CCC(C)C)C(=O)[O][Sn]([CH3])([CH3])[O]C(=O)C(C)(CC)CCC(C)C` (stereo unspecified) the Potency [1] was “inactive” and the Potency [2, 12] was inconclusive: 61.1 µM [inhibitor, single point].

For `Cc1ccc(C)cc1`, the Potency [1] was “inactive” and the Potency [2, 12] was “inactive”.

For `C=CC(C)(CCC=C(C)C)OC(=O)CC` (stereo unspecified), the Potency [1] was “inactive”, the Potency [2, 12] was “inactive” and the Potency [3] was “inactive”.

With `OCCCc1cccnc1` the Potency [1] was inconclusive: 18.2 µM [rising, partial curve, poor fit] and the activation [2, 12] was inconclusive: -42.7%.

With `CCC(C)(CN(C)C)OC(=O)c1ccccc1` (stereo unspecified) the Potency [1] was “inactive” and the Potency [2, 12] was “inactive”.

With `CN1CCOC(c2ccccc2)c2ccccc2C1` (stereo unspecified) the Potency [1] was inconclusive: 3.97 µM [rising, full curve] and the Potency [2, 12] was “inactive”.

In the case of `CCCN(CCC)C(=O)C(CCC(=O)OCCCN1CCN(CCOC(=O)Cc2c(C)n(C(=O)c3ccc(Cl)cc3)c3ccc(OC)cc23)CC1)NC(=O)c1ccccc1` (stereo unspecified), the Potency [4] is reported as “inactive”.

For `CCN(CCCCOC(=O)c1ccc(OC)c(OC)c1)C(C)Cc1ccc(OC)cc1` (stereo unspecified), the Potency [5] was active: 13.3 µM.

With `NC(=O)c1ncn([C@@H]2O[C@H](CO)[C@@H](O)[C@H]2O)n1` the activation ([2]; at 42.5 µM (top of the series)) was inactive: 5.74%.

In the case of `O=C(c1ccc(O)cc1)c1ccc(Cl)cc1`, the Potency [6] is reported as inconclusive: 2.63 µM [rising, partial curve], the Potency [7] is reported as “inactive” and the Potency [8] is reported as inconclusive: 31.3 µM [fluorescent, partial curve]. For the same molecule, the Potency [2, 12] was inconclusive: 8.82 µM [inhibitor, partial curve].

For `CCC(=O)OCc1ccc(OC)cc1`, the Potency [6] was “inactive”, the Potency [7] was “inactive” and the Potency [9] was “inactive”. For the same molecule, the Potency [2, 12] was “inactive”.

In the case of `OCCOCCN1CCN(C(c2ccccc2)c2ccc(Cl)cc2)CC1` (stereo unspecified), the Potency [6] is reported as inconclusive: 7.16 µM [rising, full curve, poor fit], the Potency [7] is reported as active: 1.47 µM and active: 1.63 µM and the Potency [10] is reported as active: 7.38 µM and inconclusive: 4.6 µM [inhibitor, full curve]. For the same molecule, the Potency [5] was “inactive and active: 26.6 µM”, the Potency [2, 12] was inconclusive: 53.8 µM [inhibitor, partial curve, poor fit] and inconclusive: 5.31 µM [inhibitor, full curve] and the Potency [11] was inconclusive: 67.7 µM [inhibitor, single point].

With `O=C(O)c1ccccc1C(=O)O` the Potency [6] was “inactive”, the Potency [7] was inconclusive: 34.5 µM [inhibitor, partial curve, poor fit] and the Potency [9] was “inactive”. For the same molecule, the Potency [2, 12] was inconclusive: 1.26 µM [inhibitor, full curve] and inactive.
